Test results as given in PubChem BioAssay AID504847 (National Center for Advancing Translational Sciences (NCATS), 2011).
Hit rate of the full screen: of about 400,000 compounds, about 3,700 (0.93%) were called active. Inconclusive results, whose numbers are uncertain, are shown with a selection of clear calls. Calls come from the whole dose curve; as a rule, active = well fitted inhibition curve with a large enough effect; inconclusive = small, poorly fitted or top-dose-only effect, or another doubt; inactive = no such curve, though single readings can be large or run the other way. A potency beside an inconclusive call is a rough fit, not a confirmed value. Some compounds were tested as several samples or in several runs, with calls that do not always agree.

The chains behind the UniProt entries cited, without tags or fusion partners. Where a name states a change or a piece, a line headed by the entry shows the natural chain unless it says otherwise.
UniProt P11473: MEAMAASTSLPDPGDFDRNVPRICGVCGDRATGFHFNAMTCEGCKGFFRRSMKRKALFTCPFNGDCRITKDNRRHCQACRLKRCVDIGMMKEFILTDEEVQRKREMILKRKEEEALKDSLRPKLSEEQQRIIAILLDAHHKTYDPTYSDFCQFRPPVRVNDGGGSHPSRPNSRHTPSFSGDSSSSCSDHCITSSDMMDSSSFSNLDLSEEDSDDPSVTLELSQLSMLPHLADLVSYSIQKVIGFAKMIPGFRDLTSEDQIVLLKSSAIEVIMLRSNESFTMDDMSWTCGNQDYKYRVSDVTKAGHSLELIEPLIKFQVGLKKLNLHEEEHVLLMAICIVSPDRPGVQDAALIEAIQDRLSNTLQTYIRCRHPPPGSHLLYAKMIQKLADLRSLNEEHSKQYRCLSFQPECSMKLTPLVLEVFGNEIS

molecular target: Vitamin D3 receptor (Homo sapiens) (UniProt P11473); experiment: Inhibitors of the vitamin D receptor (VDR): qHTS; details: VDR-SRC2-3 peptide fluorescence polarization, 2 h; max response, negative = inhibition: stronger effect = lower value
Procedure, shortened: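 FP read-out; VDR + SRC2-3 coactivator peptide; 23 nl compound by pintool; 2 h RT incubation; reagents held at 4 deg C, protected from light.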
% is set by controls: 0 for no effect and ±100 for the full control effect; potency is the fitted concentration of half-maximal effect.

Row | SMILES | max response, negative = inhibition | Potency
1 | CCOc1ccc(N(C(=O)OC(C)(C)C)C(=O)c2ccc(O[Si](C)(C)C(C)(C)C)cc2)c(I)c1 | inactive: 2.16% | –
2 | O=S1(=O)C=CC(Nc2ccccc2)C1 (configuration not stated) | – | inconclusive: 25.1 µM [inhibitor, partial curve, poor fit]
3 | CC(=O)c1ccc(-c2cccc(-c3cc(=O)oc4ccc(C(C)(C)C)cc34)c2)cc1 | – | inconclusive: 28.2 µM [inhibitor, partial curve]
4 | CCN(CC)c1nc2c(c(=O)[nH]c(=O)n2C)n1CCCc1ccccc1 | inactive: -12.2% | –
5 | Cc1ccc(/C([O-])=C(/C(=S)NCc2ccccc2)[n+]2cccc(CO)c2)cc1[N+](=O)[O-] | inactive: -10.6% | –
6 | CN1CCN(c2ncc3nc(-c4ccccc4)c(=O)n(Cc4ccc(F)cc4)c3n2)CC1 | inactive: 6.49% | –
7 | COc1ccc([C@H]2CC(=O)C=C(c3ccc4ncccc4c3)C2)cc1OC | inactive: -5.81% | –
8 | O=C(c1cc(C(F)(F)F)cc(C(F)(F)F)c1)N1CCC[C@@]2(CCN(Cc3ccccc3)C2)C1 | – | inconclusive: 31.6 µM [inhibitor, partial curve]
9 | CNC(=O)c1cnc2sc(N3CCCCCC3)nn2c1=O | inactive: 6.56% | –
10 | COc1cccc(NC(=O)CCS(=O)(=O)c2ccc(Br)cc2)c1 | inactive: -10.2% | –
11 | COc1ccc(C(=O)Nc2nc3ccccc3n2CCOc2ccc(Cl)cc2)cc1 | inactive: 5.87% | –
12 | Oc1cccc(/C=N\Nc2nncc(-c3ccccc3)n2)c1 | – | inconclusive: 39.8 µM [inhibitor, single point]
13 | O=C(Nc1nccs1)C1CCCN1S(=O)(=O)c1ccc(Cl)cc1 (configuration not stated) | inactive: 15.7% | –
14 | On1onc2c3cc(-c4ccccc4)nc3ccc21 | inactive: 0.826% | –
15 | O=C(NNC(=S)Nc1ccccc1)c1cc(-c2cccnc2)nc2ccccc12 | – | inconclusive: 70.8 µM [inhibitor, partial curve]
16 | CC1CN(C2CCN(S(=O)(=O)c3ccc4ccccc4c3)CC2)CC(C)O1 (configuration not stated) | inactive: 0.922% | –
17 | Cc1[nH]c(C)c(S(=O)(=O)Nc2cccc(Cl)c2C)c1C(=O)N1CCCCC1 | – | inconclusive: 22.4 µM [inhibitor, single point]
18 | COc1ccc(OC)c(NC(=O)c2cccc3c2C(=O)N(C2CCCCC2)C3)c1 | – | active: 22.4 µM
19 | Cc1ccc(C)c(Cn2c(O)c(N=NC(=S)Nc3ccccc3F)c3ccccc32)c1 | – | inconclusive: 22.4 µM [inhibitor, partial curve, poor fit]
20 | CSc1nsc(SCC(=O)Nc2ccccc2C(=O)O)n1 | inactive: 9.8% | –
21 | Cc1ccc(-n2nc3c(n2)/C(=N/O)CC/C3=N\O)cc1 | inactive: -13.2% | –

Three of these compounds, set out differently:
Row,SMILES,"max response, negative = inhibition",Potency
4,CCN(CC)c1nc2c(c(=O)[nH]c(=O)n2C)n1CCCc1ccccc1,inactive: -12.2%,–
9,CNC(=O)c1cnc2sc(N3CCCCCC3)nn2c1=O,inactive: 6.56%,–
21,Cc1ccc(-n2nc3c(n2)/C(=N/O)CC/C3=N\O)cc1,inactive: -13.2%,–

The list goes on.

Row | SMILES | max response, negative = inhibition | Potency
22 | O=C(c1ccco1)N1CCCN(C(=O)c2ccco2)CC1 | – | inconclusive: 56.2 µM [inhibitor, partial curve, poor fit]
23 | COC(=O)c1sccc1NC(=O)c1cccc(OC)c1 | – | inconclusive: 17.8 µM [inhibitor, partial curve, poor fit]
24 | NC(=S)c1cc2ccc(O)cc2oc1=O | – | inconclusive: 56.2 µM [inhibitor, partial curve, poor fit]
25 | COc1ccc(-c2nc(CSCC(=O)N3CCc4ccccc4C3)c(C)o2)cc1OC | – | inconclusive: 56.2 µM [inhibitor, partial curve, poor fit]
26 | CC(=O)Nc1ccc(S(=O)(=O)NNc2cccc(C)c2)cc1 | – | active: 79.4 µM
27 | O=C(COC(=O)[C@H](Cc1ccccc1)NC(=O)c1ccco1)Nc1ccccc1OC(F)F | – | inconclusive: 100 µM [inhibitor, single point]
28 | C/C(=C(/CCO)SS/C(CCO)=C(\C)N(C=O)Cc1cnc(C)nc1N)N(C=O)Cc1cnc(C)nc1N | – | active: 31.6 µM
29 | Cc1ccc(-c2csc3nc(C)n(-n4c(C)ccc4C)c(=O)c23)o1 | – | inconclusive: 39.8 µM [inhibitor, partial curve, poor fit]
30 | CSc1ccc(C2C(C(=O)Nc3ccccc3)=C(C)Nc3nc4ccccc4n32)cc1 (configuration not stated) | – | inconclusive: 100 µM [inhibitor, partial curve, poor fit]
31 | CCCCN(C)CCCNC(=O)C1CCN(S(=O)(=O)CCC)CC1 | inactive: -1.83% | –
32 | COc1ccc(NC(=O)c2ccc3c(=O)n(-c4ccc(OC)cc4OC)c(=S)[nH]c3c2)c(OC)c1 | – | inconclusive: 79.4 µM [inhibitor, single point]
33 | COc1ccc(N=C2C(=O)N3c4c(cccc42)C(C)=CC3(C)C)cc1 | – | active: 50.1 µM
34 | Nc1nc(SCC(=O)c2cccc([N+](=O)[O-])c2)n[nH]1 | – | inconclusive: 79.4 µM [inhibitor, partial curve, poor fit]
35 | COc1ccc(C(=O)N2CCC3(CCCN(c4ccc(-c5ccccc5)cc4)C3)CC2)cc1 | – | inconclusive: 79.4 µM [inhibitor, partial curve, poor fit]
36 | COc1cc(C(C2C(=O)CC(C)(C)CC2=O)C2C(=O)CC(C)(C)CC2=O)cc(OC)c1OC | – | inconclusive: 50.1 µM [inhibitor, partial curve, poor fit]
37 | CC(C)N(C(=O)[C@H]1C[C@H](CC(=O)NCCc2ccccn2)C(=O)N2CCc3c([nH]c4cc(CCC(=O)N(C)C)ccc34)[C@]12C)C(C)C | – | inconclusive: 89.1 µM [inhibitor, partial curve, poor fit]
38 | FC(F)(F)c1cnc(C(c2ccccn2)c2ncn[nH]2)c(Cl)c1 (configuration not stated) | inactive: -10.8% | –
39 | Cc1nc(N=Nc2cc(S(=O)(=O)O)c3cc([N+](=O)[O-])cc(S(=O)(=O)O)c3c2)c(COP(=O)(O)O)c(C=O)c1O | – | active: 39.8 µM
40 | Cc1cc(C)c(C(=O)CSc2nnc(N)s2)cc1C | – | inconclusive: 35.5 µM [inhibitor, single point]
41 | COc1ccccc1NC(=O)Nc1sccc1-c1nc2ccccc2s1 | – | inconclusive: 79.4 µM [inhibitor, partial curve, poor fit]
42 | CCOC(=O)CSc1nnc(NC(=O)c2cc([N+](=O)[O-])cc([N+](=O)[O-])c2)s1 | – | inconclusive: 44.7 µM [inhibitor, full curve, poor fit]
